From paper PMC6783494
No constants are given. Whether binding was seen depends on the method and setting. In cells and extracts the contact can be indirect. Some binding calls cover weakened binding; strength is not graded here.

The chains behind the UniProt entries cited, without tags or fusion partners. Where a name states a change or a piece, a line headed by the entry shows the natural chain unless it says otherwise.
UniProt P35637: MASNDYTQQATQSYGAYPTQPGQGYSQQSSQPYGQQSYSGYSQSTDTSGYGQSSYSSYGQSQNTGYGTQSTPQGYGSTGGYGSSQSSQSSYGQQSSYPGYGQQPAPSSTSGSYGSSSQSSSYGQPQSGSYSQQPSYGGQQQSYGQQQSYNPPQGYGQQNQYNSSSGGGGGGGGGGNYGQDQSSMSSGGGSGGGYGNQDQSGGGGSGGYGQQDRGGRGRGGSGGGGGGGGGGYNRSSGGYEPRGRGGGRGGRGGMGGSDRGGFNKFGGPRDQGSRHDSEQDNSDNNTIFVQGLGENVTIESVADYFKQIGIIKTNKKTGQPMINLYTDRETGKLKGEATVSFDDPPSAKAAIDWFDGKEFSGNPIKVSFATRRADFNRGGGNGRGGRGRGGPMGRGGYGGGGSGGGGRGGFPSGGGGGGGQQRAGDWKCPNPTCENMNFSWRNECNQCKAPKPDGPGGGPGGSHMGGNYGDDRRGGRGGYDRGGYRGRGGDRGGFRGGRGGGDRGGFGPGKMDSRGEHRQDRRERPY
UniProt Q00987: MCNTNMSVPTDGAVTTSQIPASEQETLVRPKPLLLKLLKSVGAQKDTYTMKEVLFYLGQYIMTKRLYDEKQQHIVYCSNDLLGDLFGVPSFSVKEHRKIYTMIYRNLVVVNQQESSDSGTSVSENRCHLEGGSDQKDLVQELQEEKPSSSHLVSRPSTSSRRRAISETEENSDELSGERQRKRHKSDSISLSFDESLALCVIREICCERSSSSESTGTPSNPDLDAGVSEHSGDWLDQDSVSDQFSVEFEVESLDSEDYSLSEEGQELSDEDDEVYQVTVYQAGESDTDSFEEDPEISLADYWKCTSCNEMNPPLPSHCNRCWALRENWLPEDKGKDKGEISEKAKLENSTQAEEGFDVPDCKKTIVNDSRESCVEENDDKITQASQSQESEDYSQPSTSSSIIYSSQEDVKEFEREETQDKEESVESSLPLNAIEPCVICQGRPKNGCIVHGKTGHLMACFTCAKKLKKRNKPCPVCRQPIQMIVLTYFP

Columns and labels:
V5-FUS, full length = V5-FUS, full length (UniProt P35637); assay: co-IP; V5-FUS full length or truncated versions transfected in HEK293T cells; IP with anti-V5 tag antibody, western blot with a specific MDM2 antibody
[1] = molecular target: FUS (fused in sarcoma), endogenous in glioblastoma cells (human (endogenous in T98G-R and U118-R)) (UniProt P35637); assay: co-IP; endogenous proteins in lysates of T98G-R and U118-R cells; 500 ug lysate, specific primary antibody, protein A/G beads, 4 C; also after knock-down of ADAMTS9-AS2 or MDM2; which of the two was precipitated is not told

binding (V5-FUS, full length)	binding [1]	Substance
binds		MDM2 in HEK293T cells (from UniProt Q00987 1-491)
	binds	murine double minute 2 (MDM2) E3 ligase, endogenous in glioblastoma cells (from UniProt Q00987 1-491)
